{
  "source": "PubChem BioAssay AID330",
  "about": "(DTP/NCI, 2004)",
  "test_system": "P388 leukemia ip, CD2F1 mice, survival T/C",
  "test": "NCI In Vivo Anticancer Drug Screen. Data for tumor model P388 Leukemia (intraperitoneal) in CD2F1 (CDF1) mice",
  "conditions": "T/C endpoint: median survival time, higher T/C = longer survival",
  "key": {"[1]": {"conditions": "dose: 60.0 mg/kg/injection, schedule: Q01DX005 (ip), vehicle: saline with Tween-80"}, "[2]": {"conditions": "dose: 120.0 mg/kg/injection, schedule: Q01DX005 (ip), vehicle: saline with Tween-80"}, "[3]": {"conditions": "dose: 240.0 mg/kg/injection, schedule: Q01DX005 (ip), vehicle: saline with Tween-80"}, "[4]": {"conditions": "dose: 200.0 mg/kg/injection, schedule: Q01DX005 (ip), vehicle: saline with Tween-80"}, "[5]": {"conditions": "dose: 50.0 mg/kg/injection, schedule: Q01DX005 (ip), vehicle: saline with Tween-80"}, "[6]": {"conditions": "dose: 100.0 mg/kg/injection, schedule: Q01DX005 (ip), vehicle: saline with Tween-80"}, "[7]": {"conditions": "dose: 50.0 mg/kg/injection, schedule: Q01DX009 (ip), vehicle: other"}, "[8]": {"conditions": "dose: 100.0 mg/kg/injection, schedule: Q01DX005 (ip), vehicle: saline"}, "[9]": {"conditions": "dose: 200.0 mg/kg/injection, schedule: Q01DX005 (ip), vehicle: Klucel (hydroxypropylcellulose) (HPC)"}, "[10]": {"conditions": "dose: 240.0 mg/kg/injection, schedule: Q01DX005 (ip), vehicle: Klucel (hydroxypropylcellulose) (HPC)"}},
  "note": "The list is a part of this screen's results and no random one: it is rich in T/C values a quarter to a half above the control, in often repeated tests (any T/C) and in doses without a T/C. Other doses and runs of a compound stand elsewhere. T/C is the treated group as % of the vehicle group. Some doses have a count of surviving animals in place of a T/C: the source holds a T/C of zero for them, seemingly a mark for toxic or unscored doses. Some doses without a T/C left all or most animals alive at the check, yet need not have been tolerated: the source hardly ever lists a survival T/C far under the control, and the zero likely stands for such cases as well. Survivors were counted at the toxicity check, usually on the fifth day, unless a day is given; later deaths do not show. Schedule codes are those of the source, read here as Q, the interval in days (D) or hours (H), X, the number of doses. For survival time, this PubChem deposit counts one and a half times the control or more as active, and values a quarter to a half above the control carry no call in these data; other NCI protocols may use other cut-offs. Some doses were run more than once; their values stand side by side, smallest first.",
  "data": [
    {"smiles": "CN1CC(NC(=O)N(CCCl)N=O)CC2c3cccc4c3c(cn4N=O)CC21", "note": "(configuration not stated)", "values": [
      {"measurement": "T/C", "setting": "dose: 12.5 mg/kg/injection, schedule: Q01DX001 (ip), vehicle: Klucel (hydroxypropylcellulose) (HPC)", "result": "130 % of control"},
      {"measurement": "T/C", "setting": "dose: 25.0 mg/kg/injection, schedule: Q01DX001 (ip), vehicle: Klucel (hydroxypropylcellulose) (HPC)", "result": "135 and 137 % of control"},
      {"measurement": "T/C", "setting": "dose: 50.0 mg/kg/injection, schedule: Q01DX001 (ip), vehicle: Klucel (hydroxypropylcellulose) (HPC)", "result": "144 % of control"}
    ]},
    {"smiles": "c1ccc2c(c1)N=C(NNC1=Nc3ccccc3SC1)CS2", "values": [
      {"measurement": "survivor count", "setting": "[1]", "result": "6 of 6"},
      {"measurement": "survivor count", "setting": "[2]", "result": "6 of 6"},
      {"measurement": "survivor count", "setting": "[3]", "result": "6 of 6"}
    ]},
    {"smiles": "CCOC(=O)/C(C#N)=C/Nc1cc(C(=O)OC)ccc1C", "values": [
      {"measurement": "survivor count", "setting": "[4]", "result": "3 of 5"}
    ]},
    {"smiles": "CCCCOc1ccc2nc3cc(Cl)ccc3c(Cl)c2n1", "values": [
      {"measurement": "survivor count", "setting": "[5]", "result": "6 of 6"},
      {"measurement": "survivor count", "setting": "[6]", "result": "6 of 6"},
      {"measurement": "survivor count", "setting": "[4]", "result": "6 of 6"}
    ]},
    {"smiles": "CC(C)(C)NC(=O)OCc1c(COC(=O)NC(C)(C)C)c(-c2ccc(Cl)c(Cl)c2)n2c1CCC2", "values": [
      {"measurement": "T/C", "setting": "dose: 12.5 mg/kg/injection, schedule: Q01DX009 (ip), vehicle: distilled water + Tween-80", "result": "133 % of control"},
      {"measurement": "T/C", "setting": "dose: 25.0 mg/kg/injection, schedule: Q01DX009 (ip), vehicle: distilled water + Tween-80, evaluated on day 30", "result": "138 % of control"},
      {"measurement": "T/C", "setting": "dose: 25.0 mg/kg/injection, schedule: Q01DX009 (ip), vehicle: distilled water + Tween-80, evaluated on day 45", "result": "146 % of control"},
      {"measurement": "T/C", "setting": "dose: 200.0 mg/kg/injection, schedule: Q01DX009 (ip), vehicle: distilled water + Tween-80", "result": "144 % of control"}
    ]},
    {"smiles": "O=C(NC(CCS(=O)(=O)NCc1ccc(S(=O)(=O)F)cc1)C(=O)OCc1ccccc1)OCc1ccccc1", "note": "(configuration not stated)", "values": [
      {"measurement": "survivor count", "setting": "[7]", "result": "4 of 6"}
    ]},
    {"smiles": "Cn1cc(N)c2ccccc2c1=O", "values": [
      {"measurement": "survivor count", "setting": "[6]", "result": "0 of 6"},
      {"measurement": "survivor count", "setting": "[4]", "result": "0 of 6"}
    ]},
    {"smiles": "COc1ccc2nc(-n3[nH]c(C)c(-c4cc(C)nn4-c4ccccc4)c3=O)cc(C)c2c1", "values": [
      {"measurement": "survivor count", "setting": "dose: 400.0 mg/kg/injection, schedule: Q01DX001 (ip), vehicle: saline with Tween-80", "result": "6 of 6"}
    ]},
    {"smiles": "C1CCN2CC3CC(CN4CCCCC34)C2C1", "note": "(configuration not stated)", "values": [
      {"measurement": "survivor count", "setting": "dose: 30.0 mg/kg/injection, schedule: Q01DX005 (ip), vehicle: saline", "result": "0 of 6"},
      {"measurement": "survivor count", "setting": "dose: 60.0 mg/kg/injection, schedule: Q01DX005 (ip), vehicle: saline", "result": "0 of 6"},
      {"measurement": "survivor count", "setting": "[8]", "result": "0 of 6"},
      {"measurement": "survivor count", "setting": "dose: 120.0 mg/kg/injection, schedule: Q01DX005 (ip), vehicle: saline", "result": "0 of 6"},
      {"measurement": "survivor count", "setting": "dose: 240.0 mg/kg/injection, schedule: Q01DX005 (ip), vehicle: saline", "result": "0 of 6"}
    ]},
    {"smiles": "CC(=O)NN=Nc1ccc(C)cc1", "values": [
      {"measurement": "survivor count", "setting": "[9]", "result": "3 of 6"}
    ]},
    {"smiles": "COc1ccc(CC2=CC(=O)C(C)=CC2=O)cc1", "values": [
      {"measurement": "survivor count", "setting": "[5]", "result": "3 of 6"},
      {"measurement": "survivor count", "setting": "[6]", "result": "0 of 6"},
      {"measurement": "survivor count", "setting": "[4]", "result": "0 of 6"}
    ]},
    {"smiles": "CCOc1c(Br)cc(/C=C/[N+](=O)[O-])cc1OC", "values": [
      {"measurement": "survivor count", "setting": "dose: 30.0 mg/kg/injection, schedule: Q01DX005 (ip), vehicle: saline with Tween-80", "result": "3 of 6"},
      {"measurement": "survivor count", "setting": "[1]", "result": "0 of 6"},
      {"measurement": "survivor count", "setting": "[2]", "result": "0 of 6"},
      {"measurement": "survivor count", "setting": "[3]", "result": "0 of 6"}
    ]},
    {"smiles": "COc1cc2c(cc1OC)C(Cc1cccs1)=NCC2", "values": [
      {"measurement": "survivor count", "setting": "[9]", "result": "2 of 5"}
    ]},
    {"smiles": "CC(=O)OC1CC(OC(C)=O)C2(C)CC3=C(O)C(=O)OC3CC(C)C12", "note": "(configuration not stated)", "values": [
      {"measurement": "survivor count", "setting": "dose: 400.0 mg/kg/injection, schedule: Q04DX002 (ip), vehicle: saline with Tween-80", "result": "1 of 6"}
    ]},
    {"smiles": "CCCNNC(N)=S", "values": [
      {"measurement": "survivor count", "setting": "[7]", "result": "3 of 6"},
      {"measurement": "survivor count", "setting": "dose: 100.0 mg/kg/injection, schedule: Q01DX009 (ip), vehicle: other", "result": "0 of 6"},
      {"measurement": "survivor count", "setting": "dose: 200.0 mg/kg/injection, schedule: Q01DX009 (ip), vehicle: other", "result": "0 of 6"}
    ]},
    {"smiles": "CCn1c(O)c(N=NC(=N)SCC(C)C)c2ccccc21", "values": [
      {"measurement": "survivor count", "setting": "dose: 25.0 mg/kg/injection, schedule: Q01DX009 (ip), vehicle: suspension in saline", "result": "6 of 6"},
      {"measurement": "survivor count", "setting": "dose: 50.0 mg/kg/injection, schedule: Q01DX009 (ip), vehicle: saline", "result": "6 of 6"},
      {"measurement": "survivor count", "setting": "dose: 100.0 mg/kg/injection, schedule: Q01DX009 (ip), vehicle: saline", "result": "6 of 6"},
      {"measurement": "survivor count", "setting": "dose: 200.0 mg/kg/injection, schedule: Q01DX009 (ip), vehicle: saline", "result": "6 of 6"}
    ]},
    {"smiles": "CC(C)(c1ccccc1)[N+](C)(C)C", "values": [
      {"measurement": "survivor count", "setting": "dose: 40.0 mg/kg/injection, schedule: Q04DX003 (ip), vehicle: saline", "result": "1 of 6"}
    ]},
    {"smiles": "CN(CC(N)=O)C(=O)N(CCCl)N=O", "values": [
      {"measurement": "T/C", "setting": "[1]", "result": "140 % of control"},
      {"measurement": "survivor count", "setting": "[3]", "result": "5 of 6"}
    ]},
    {"smiles": "CSCSCC(CO)NC(=O)C(Cl)Cl", "note": "(configuration not stated)", "values": [
      {"measurement": "survivor count", "setting": "dose: 100.0 mg/kg/injection, schedule: Q01DX009 (ip), vehicle: water", "result": "6 of 6"}
    ]},
    {"smiles": "CN(C)Cc1onc(-c2c(Cl)cccc2Cl)c1C(=O)O", "values": [
      {"measurement": "survivor count", "setting": "[3]", "result": "0 of 6"}
    ]},
    {"smiles": "COC(=O)C(CC(C)C)NC(=O)C(N)CSC(c1ccccc1)(c1ccccc1)c1ccccc1", "note": "(configuration not stated)", "values": [
      {"measurement": "T/C", "setting": "dose: 120.0 mg/kg/injection, schedule: Q01DX005 (ip), vehicle: Klucel (hydroxypropylcellulose) (HPC)", "result": "141 % of control"},
      {"measurement": "T/C", "setting": "[10]", "result": "130 % of control"}
    ]},
    {"smiles": "Cc1c(OCC(=O)N/N=C/c2ccc(N(CCCl)CCCl)cc2)ccc2c(=O)c3ccccc3oc12", "values": [
      {"measurement": "survivor count", "setting": "[10]", "result": "3 of 6"}
    ]},
    {"smiles": "CCOC(=O)CCC(NC(=O)c1ccc(NCc2ccc3nc(N)nc(N)c3c2C)cc1)C(=O)OCC", "note": "(configuration not stated)", "values": [
      {"measurement": "survivor count", "setting": "dose: 0.06 mg/kg/injection, schedule: Q01DX009 (ip), vehicle: saline + alcohol", "result": "6 of 6"},
      {"measurement": "survivor count", "setting": "dose: 0.11 mg/kg/injection, schedule: Q01DX009 (ip), vehicle: saline + alcohol", "result": "6 of 6"},
      {"measurement": "T/C", "setting": "dose: 0.5 mg/kg/injection, schedule: Q01DX001 (ip), vehicle: saline + alcohol", "result": "130 and 132 % of control"},
      {"measurement": "T/C", "setting": "dose: 1.0 mg/kg/injection, schedule: Q01DX001 (ip), vehicle: saline + alcohol", "result": "128 and 137 % of control"}
    ]},
    {"smiles": "CN(C)CC(CN(C)C)C(=O)/C=C/c1ccc(O)cc1", "values": [
      {"measurement": "survivor count", "setting": "dose: 12.5 mg/kg/injection, schedule: Q01DX005 (ip), vehicle: saline", "result": "1 of 6"},
      {"measurement": "survivor count", "setting": "dose: 25.0 mg/kg/injection, schedule: Q01DX005 (ip), vehicle: saline", "result": "0 of 6"},
      {"measurement": "survivor count", "setting": "dose: 50.0 mg/kg/injection, schedule: Q01DX005 (ip), vehicle: saline", "result": "0 of 6"},
      {"measurement": "survivor count", "setting": "[8]", "result": "0 of 6"},
      {"measurement": "survivor count", "setting": "dose: 200.0 mg/kg/injection, schedule: Q01DX005 (ip), vehicle: saline", "result": "0 of 6"}
    ]}
  ]
}
